Assay results as given in publication PMC11213247.
These are yes or no findings as the source states them, for the method shown. In cells and extracts the contact can be indirect. Binding calls can cover weak binding; strength is not graded here. Tags and fused reporters may be left off the sequences shown. Each block holds one molecule with its values, some of them ahead of it.

The chains behind the UniProt entries cited, without tags or fusion partners. Where a name states a change or a piece, a line headed by the entry shows the natural chain unless it says otherwise.
UniProt Q69KN0: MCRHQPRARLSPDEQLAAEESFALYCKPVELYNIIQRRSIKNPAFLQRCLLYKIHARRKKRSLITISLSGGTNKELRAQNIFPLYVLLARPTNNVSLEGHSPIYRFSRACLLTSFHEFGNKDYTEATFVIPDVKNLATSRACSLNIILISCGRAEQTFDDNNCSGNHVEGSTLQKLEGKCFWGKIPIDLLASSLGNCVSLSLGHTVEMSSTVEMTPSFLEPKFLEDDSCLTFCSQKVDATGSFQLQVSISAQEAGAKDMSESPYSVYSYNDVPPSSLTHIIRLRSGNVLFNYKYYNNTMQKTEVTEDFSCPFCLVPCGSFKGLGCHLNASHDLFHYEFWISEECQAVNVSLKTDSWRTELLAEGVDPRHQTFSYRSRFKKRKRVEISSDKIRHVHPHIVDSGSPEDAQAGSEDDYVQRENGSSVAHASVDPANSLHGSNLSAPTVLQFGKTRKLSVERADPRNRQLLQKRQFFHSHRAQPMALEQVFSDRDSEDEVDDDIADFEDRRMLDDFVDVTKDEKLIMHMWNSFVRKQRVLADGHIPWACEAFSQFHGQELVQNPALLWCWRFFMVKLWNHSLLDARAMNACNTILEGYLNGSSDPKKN

Assays:
[1] = biological target: T1, Venus-tagged JMJ703 (JMJ703-Venus) (rice (Oryza sativa)) (UniProt Q53WJ1); experiment: co-IP; both proteins expressed in rice protoplasts; proteins extracted and subjected to Co-IP; detected by anti-HA and anti-GFP
T1 sequence: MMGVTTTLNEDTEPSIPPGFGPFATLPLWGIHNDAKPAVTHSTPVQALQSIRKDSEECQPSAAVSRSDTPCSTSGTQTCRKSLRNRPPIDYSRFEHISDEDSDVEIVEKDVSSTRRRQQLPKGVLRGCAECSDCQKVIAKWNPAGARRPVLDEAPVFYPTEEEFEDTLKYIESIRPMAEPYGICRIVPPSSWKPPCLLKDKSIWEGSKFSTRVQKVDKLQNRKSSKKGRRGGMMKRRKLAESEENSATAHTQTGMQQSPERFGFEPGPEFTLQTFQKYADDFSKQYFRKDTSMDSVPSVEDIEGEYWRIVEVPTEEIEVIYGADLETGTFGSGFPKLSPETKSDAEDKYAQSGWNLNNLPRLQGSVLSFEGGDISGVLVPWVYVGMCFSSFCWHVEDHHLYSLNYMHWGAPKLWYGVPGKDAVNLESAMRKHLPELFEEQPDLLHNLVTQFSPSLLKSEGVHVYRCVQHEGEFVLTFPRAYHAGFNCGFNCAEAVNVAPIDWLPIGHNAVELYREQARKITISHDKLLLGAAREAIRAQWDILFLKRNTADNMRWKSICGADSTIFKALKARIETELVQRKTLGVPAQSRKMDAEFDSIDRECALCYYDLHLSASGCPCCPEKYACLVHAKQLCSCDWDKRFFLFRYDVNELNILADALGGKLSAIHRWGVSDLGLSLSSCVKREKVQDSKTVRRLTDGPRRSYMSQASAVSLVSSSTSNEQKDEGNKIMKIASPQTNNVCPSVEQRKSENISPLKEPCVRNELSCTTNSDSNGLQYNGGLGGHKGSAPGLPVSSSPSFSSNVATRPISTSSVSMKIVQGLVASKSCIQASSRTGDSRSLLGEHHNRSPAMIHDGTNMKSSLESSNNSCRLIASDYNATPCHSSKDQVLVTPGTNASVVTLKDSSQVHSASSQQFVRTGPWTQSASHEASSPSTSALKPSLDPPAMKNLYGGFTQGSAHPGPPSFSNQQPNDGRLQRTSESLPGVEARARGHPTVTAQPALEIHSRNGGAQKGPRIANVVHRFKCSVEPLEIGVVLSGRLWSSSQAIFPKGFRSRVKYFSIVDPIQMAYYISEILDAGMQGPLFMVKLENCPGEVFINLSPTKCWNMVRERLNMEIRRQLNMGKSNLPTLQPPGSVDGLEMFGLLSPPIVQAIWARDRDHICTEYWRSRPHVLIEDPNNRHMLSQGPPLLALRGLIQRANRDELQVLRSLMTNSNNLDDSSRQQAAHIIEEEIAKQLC

[2] = biological target: EMF2b-Flag-HA (rice (Oryza sativa)); experiment: co-IP; JMJ703 or JMJ704 transiently expressed in protoplasts of 35S::EMF2b-Flag-HA/Nip transgenic plants
[3] = biological target: EMF2b, split firefly luciferase fusion (rice (Oryza sativa)) (UniProt Q69KN0); experiment: split reporter; split firefly luciferase complementation (SFLC); pairs of plasmids co-infiltrated in Nicotiana benthamiana leaves

Molecule: Hemagglutinin (HA)-tagged EMF2b (EMF2b-HA) (rice (Oryza sativa))
binding [1]: binds

binding [2]: binds
B1: JMJ703 transiently expressed in rice protoplasts (tag not shown) (protein, UniProt Q53WJ1 1-1238)
chain: MMGVTTTLNEDTEPSIPPGFGPFATLPLWGIHNDAKPAVTHSTPVQALQSIRKDSEECQPSAAVSRSDTPCSTSGTQTCRKSLRNRPPIDYSRFEHISDEDSDVEIVEKDVSSTRRRQQLPKGVLRGCAECSDCQKVIAKWNPAGARRPVLDEAPVFYPTEEEFEDTLKYIESIRPMAEPYGICRIVPPSSWKPPCLLKDKSIWEGSKFSTRVQKVDKLQNRKSSKKGRRGGMMKRRKLAESEENSATAHTQTGMQQSPERFGFEPGPEFTLQTFQKYADDFSKQYFRKDTSMDSVPSVEDIEGEYWRIVEVPTEEIEVIYGADLETGTFGSGFPKLSPETKSDAEDKYAQSGWNLNNLPRLQGSVLSFEGGDISGVLVPWVYVGMCFSSFCWHVEDHHLYSLNYMHWGAPKLWYGVPGKDAVNLESAMRKHLPELFEEQPDLLHNLVTQFSPSLLKSEGVHVYRCVQHEGEFVLTFPRAYHAGFNCGFNCAEAVNVAPIDWLPIGHNAVELYREQARKITISHDKLLLGAAREAIRAQWDILFLKRNTADNMRWKSICGADSTIFKALKARIETELVQRKTLGVPAQSRKMDAEFDSIDRECALCYYDLHLSASGCPCCPEKYACLVHAKQLCSCDWDKRFFLFRYDVNELNILADALGGKLSAIHRWGVSDLGLSLSSCVKREKVQDSKTVRRLTDGPRRSYMSQASAVSLVSSSTSNEQKDEGNKIMKIASPQTNNVCPSVEQRKSENISPLKEPCVRNELSCTTNSDSNGLQYNGGLGGHKGSAPGLPVSSSPSFSSNVATRPISTSSVSMKIVQGLVASKSCIQASSRTGDSRSLLGEHHNRSPAMIHDGTNMKSSLESSNNSCRLIASDYNATPCHSSKDQVLVTPGTNASVVTLKDSSQVHSASSQQFVRTGPWTQSASHEASSPSTSALKPSLDPPAMKNLYGGFTQGSAHPGPPSFSNQQPNDGRLQRTSESLPGVEARARGHPTVTAQPALEIHSRNGGAQKGPRIANVVHRFKCSVEPLEIGVVLSGRLWSSSQAIFPKGFRSRVKYFSIVDPIQMAYYISEILDAGMQGPLFMVKLENCPGEVFINLSPTKCWNMVRERLNMEIRRQLNMGKSNLPTLQPPGSVDGLEMFGLLSPPIVQAIWARDRDHICTEYWRSRPHVLIEDPNNRHMLSQGPPLLALRGLIQRANRDELQVLRSLMTNSNNLDDSSRQQAAHIIEEEIAKQLC

binding [3]: binds
B2: JmjC-domain-containing protein 703 (JMJ703), split firefly luciferase fusion (protein, UniProt Q53WJ1 1-1238)
chain: MMGVTTTLNEDTEPSIPPGFGPFATLPLWGIHNDAKPAVTHSTPVQALQSIRKDSEECQPSAAVSRSDTPCSTSGTQTCRKSLRNRPPIDYSRFEHISDEDSDVEIVEKDVSSTRRRQQLPKGVLRGCAECSDCQKVIAKWNPAGARRPVLDEAPVFYPTEEEFEDTLKYIESIRPMAEPYGICRIVPPSSWKPPCLLKDKSIWEGSKFSTRVQKVDKLQNRKSSKKGRRGGMMKRRKLAESEENSATAHTQTGMQQSPERFGFEPGPEFTLQTFQKYADDFSKQYFRKDTSMDSVPSVEDIEGEYWRIVEVPTEEIEVIYGADLETGTFGSGFPKLSPETKSDAEDKYAQSGWNLNNLPRLQGSVLSFEGGDISGVLVPWVYVGMCFSSFCWHVEDHHLYSLNYMHWGAPKLWYGVPGKDAVNLESAMRKHLPELFEEQPDLLHNLVTQFSPSLLKSEGVHVYRCVQHEGEFVLTFPRAYHAGFNCGFNCAEAVNVAPIDWLPIGHNAVELYREQARKITISHDKLLLGAAREAIRAQWDILFLKRNTADNMRWKSICGADSTIFKALKARIETELVQRKTLGVPAQSRKMDAEFDSIDRECALCYYDLHLSASGCPCCPEKYACLVHAKQLCSCDWDKRFFLFRYDVNELNILADALGGKLSAIHRWGVSDLGLSLSSCVKREKVQDSKTVRRLTDGPRRSYMSQASAVSLVSSSTSNEQKDEGNKIMKIASPQTNNVCPSVEQRKSENISPLKEPCVRNELSCTTNSDSNGLQYNGGLGGHKGSAPGLPVSSSPSFSSNVATRPISTSSVSMKIVQGLVASKSCIQASSRTGDSRSLLGEHHNRSPAMIHDGTNMKSSLESSNNSCRLIASDYNATPCHSSKDQVLVTPGTNASVVTLKDSSQVHSASSQQFVRTGPWTQSASHEASSPSTSALKPSLDPPAMKNLYGGFTQGSAHPGPPSFSNQQPNDGRLQRTSESLPGVEARARGHPTVTAQPALEIHSRNGGAQKGPRIANVVHRFKCSVEPLEIGVVLSGRLWSSSQAIFPKGFRSRVKYFSIVDPIQMAYYISEILDAGMQGPLFMVKLENCPGEVFINLSPTKCWNMVRERLNMEIRRQLNMGKSNLPTLQPPGSVDGLEMFGLLSPPIVQAIWARDRDHICTEYWRSRPHVLIEDPNNRHMLSQGPPLLALRGLIQRANRDELQVLRSLMTNSNNLDDSSRQQAAHIIEEEIAKQLC
